This is one part of the list.
Assays:
Test in all cases: log2 fold change, soluble protein after heating vs DMSO (PISA); higher = thermal stabilisation; K562 cells, 10 uM, 30 min; active = over 0.2 and 3.5 SD of the protein, either way, in both replicates (recomputed)
crizotinib = compound: C[C@@H](Oc1cc(-c2cnn(C3CCNCC3)c2)cnc1N)c1c(Cl)ccc(F)c1Cl [crizotinib]
Method in brief: (§1)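 K562 cells at 2×10^6 cells/mL were treated with 10 μM compound for 30 min. Aliquots were heated for 3 min across 48°C-58°C, pooled, and extracted in PBS with 0.5% NP-40 at 4°C; soluble protein was the supernatant after 21,000xg for 90 min. Soluble protein was quantified by TMTpro 16plex LC-MS/MS with channel sums equalised, and reported as log2 fold change in thermal stability against DMSO controls, with values from duplicates.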

Protein sequences, listed by entry. Tags and fused reporters are not part of them. Lines headed by an entry give the natural chain unless they say otherwise; changes in a name come on top.
UniProt Q8IUX4: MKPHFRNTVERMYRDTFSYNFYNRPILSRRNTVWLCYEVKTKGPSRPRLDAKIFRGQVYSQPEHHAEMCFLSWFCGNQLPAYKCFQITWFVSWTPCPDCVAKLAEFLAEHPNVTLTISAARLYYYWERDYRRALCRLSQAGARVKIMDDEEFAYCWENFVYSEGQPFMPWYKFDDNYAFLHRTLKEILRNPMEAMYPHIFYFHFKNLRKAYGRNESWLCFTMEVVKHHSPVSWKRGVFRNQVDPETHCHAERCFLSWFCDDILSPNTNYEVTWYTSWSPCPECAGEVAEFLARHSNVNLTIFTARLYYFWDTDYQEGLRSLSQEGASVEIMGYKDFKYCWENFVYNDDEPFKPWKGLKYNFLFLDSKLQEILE
UniProt Q9UH17: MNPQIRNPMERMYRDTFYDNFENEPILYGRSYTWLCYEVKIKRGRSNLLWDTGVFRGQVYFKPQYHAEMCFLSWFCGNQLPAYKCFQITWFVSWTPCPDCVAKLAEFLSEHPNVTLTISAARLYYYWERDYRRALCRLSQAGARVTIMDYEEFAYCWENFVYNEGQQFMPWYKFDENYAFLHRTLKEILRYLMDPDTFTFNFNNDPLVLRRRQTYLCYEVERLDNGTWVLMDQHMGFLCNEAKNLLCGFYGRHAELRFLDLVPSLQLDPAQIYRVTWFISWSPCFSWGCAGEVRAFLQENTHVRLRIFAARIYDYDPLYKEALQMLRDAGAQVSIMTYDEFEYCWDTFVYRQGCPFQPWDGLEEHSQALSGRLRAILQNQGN
UniProt P42331: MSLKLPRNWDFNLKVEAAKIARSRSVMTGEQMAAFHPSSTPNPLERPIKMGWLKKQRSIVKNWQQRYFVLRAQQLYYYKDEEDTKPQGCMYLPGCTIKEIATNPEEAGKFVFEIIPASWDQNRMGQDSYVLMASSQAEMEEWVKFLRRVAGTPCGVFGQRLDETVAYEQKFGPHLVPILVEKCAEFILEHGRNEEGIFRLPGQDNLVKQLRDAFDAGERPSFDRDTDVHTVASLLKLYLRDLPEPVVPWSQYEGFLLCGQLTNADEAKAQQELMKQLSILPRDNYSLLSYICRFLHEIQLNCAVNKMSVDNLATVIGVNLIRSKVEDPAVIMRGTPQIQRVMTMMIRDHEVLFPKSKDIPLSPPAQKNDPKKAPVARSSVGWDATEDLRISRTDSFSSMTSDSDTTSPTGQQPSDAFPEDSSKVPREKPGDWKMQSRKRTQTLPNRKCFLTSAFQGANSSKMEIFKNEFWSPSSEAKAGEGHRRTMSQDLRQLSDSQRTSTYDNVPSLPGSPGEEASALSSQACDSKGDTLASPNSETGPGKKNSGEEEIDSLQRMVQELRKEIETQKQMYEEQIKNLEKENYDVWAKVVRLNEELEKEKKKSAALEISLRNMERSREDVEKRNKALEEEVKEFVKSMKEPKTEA
UniProt Q6P6B7: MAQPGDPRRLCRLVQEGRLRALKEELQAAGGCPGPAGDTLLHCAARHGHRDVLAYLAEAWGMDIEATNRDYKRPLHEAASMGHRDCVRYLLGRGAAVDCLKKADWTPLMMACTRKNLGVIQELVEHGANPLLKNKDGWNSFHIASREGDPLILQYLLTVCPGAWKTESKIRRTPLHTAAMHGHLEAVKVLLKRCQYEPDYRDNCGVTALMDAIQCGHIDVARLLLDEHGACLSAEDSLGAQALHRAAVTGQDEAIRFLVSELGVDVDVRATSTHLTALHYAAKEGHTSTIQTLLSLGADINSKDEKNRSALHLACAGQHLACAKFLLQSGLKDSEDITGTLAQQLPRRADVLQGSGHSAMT
UniProt Q13017, whole entry, looked up: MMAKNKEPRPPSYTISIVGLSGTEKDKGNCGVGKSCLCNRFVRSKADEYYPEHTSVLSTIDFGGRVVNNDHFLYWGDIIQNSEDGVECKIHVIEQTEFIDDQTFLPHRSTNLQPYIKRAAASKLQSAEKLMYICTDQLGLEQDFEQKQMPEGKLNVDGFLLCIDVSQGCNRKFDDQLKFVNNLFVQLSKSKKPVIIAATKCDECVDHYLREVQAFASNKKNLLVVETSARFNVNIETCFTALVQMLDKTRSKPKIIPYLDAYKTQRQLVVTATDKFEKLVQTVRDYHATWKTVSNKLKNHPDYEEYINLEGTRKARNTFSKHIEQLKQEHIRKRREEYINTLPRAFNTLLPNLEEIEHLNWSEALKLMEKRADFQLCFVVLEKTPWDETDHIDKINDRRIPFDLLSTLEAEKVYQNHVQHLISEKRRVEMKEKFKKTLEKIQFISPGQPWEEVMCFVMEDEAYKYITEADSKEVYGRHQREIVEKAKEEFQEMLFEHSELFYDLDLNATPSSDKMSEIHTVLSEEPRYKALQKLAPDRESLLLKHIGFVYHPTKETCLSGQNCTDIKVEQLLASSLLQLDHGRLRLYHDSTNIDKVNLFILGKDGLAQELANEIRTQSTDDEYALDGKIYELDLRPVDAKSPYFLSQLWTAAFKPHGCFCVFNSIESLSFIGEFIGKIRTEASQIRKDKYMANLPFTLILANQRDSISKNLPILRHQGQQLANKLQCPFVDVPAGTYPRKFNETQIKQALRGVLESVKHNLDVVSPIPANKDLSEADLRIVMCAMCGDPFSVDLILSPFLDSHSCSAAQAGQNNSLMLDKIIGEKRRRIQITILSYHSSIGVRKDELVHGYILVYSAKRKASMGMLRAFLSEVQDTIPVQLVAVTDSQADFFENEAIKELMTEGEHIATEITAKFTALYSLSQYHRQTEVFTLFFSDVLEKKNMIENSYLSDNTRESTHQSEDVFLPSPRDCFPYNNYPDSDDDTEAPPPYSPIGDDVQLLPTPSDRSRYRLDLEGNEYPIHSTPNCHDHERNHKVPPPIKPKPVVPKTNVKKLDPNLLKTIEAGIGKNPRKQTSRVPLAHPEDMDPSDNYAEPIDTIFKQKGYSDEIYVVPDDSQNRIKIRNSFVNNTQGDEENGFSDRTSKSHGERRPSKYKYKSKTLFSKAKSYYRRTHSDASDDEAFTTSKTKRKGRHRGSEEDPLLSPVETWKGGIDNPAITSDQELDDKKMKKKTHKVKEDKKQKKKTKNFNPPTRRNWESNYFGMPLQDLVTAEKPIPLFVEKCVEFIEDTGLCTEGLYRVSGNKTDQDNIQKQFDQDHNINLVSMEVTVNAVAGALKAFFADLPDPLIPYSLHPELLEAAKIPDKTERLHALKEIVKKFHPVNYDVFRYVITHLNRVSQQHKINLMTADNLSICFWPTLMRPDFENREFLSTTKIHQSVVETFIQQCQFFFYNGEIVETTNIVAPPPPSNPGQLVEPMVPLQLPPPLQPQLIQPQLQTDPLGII
UniProt Q9HCJ1: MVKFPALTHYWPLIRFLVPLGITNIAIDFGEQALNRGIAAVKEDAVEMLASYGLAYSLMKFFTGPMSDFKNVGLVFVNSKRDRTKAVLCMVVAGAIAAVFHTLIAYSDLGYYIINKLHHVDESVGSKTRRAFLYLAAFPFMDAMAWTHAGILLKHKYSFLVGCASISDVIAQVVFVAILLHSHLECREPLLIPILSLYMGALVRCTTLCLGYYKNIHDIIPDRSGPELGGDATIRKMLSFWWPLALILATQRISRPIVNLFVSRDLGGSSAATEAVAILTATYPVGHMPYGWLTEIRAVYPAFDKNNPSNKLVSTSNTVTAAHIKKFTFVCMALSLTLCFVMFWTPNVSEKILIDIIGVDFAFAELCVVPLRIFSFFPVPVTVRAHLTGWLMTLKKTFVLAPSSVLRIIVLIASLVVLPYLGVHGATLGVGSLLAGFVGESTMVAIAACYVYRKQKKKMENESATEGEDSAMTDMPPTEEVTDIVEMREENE

[1] = compound: C[C@@H]1COCCN1C2=NC(=NC(=C2)C3(CC3)S(=O)(=O)C)C4=C5C=CNC5=CC=C4
Method in brief: as §1

[2] = compound: C[C@H](C1=CC=C(C=C1)C(=O)NC2=C3C=CNC3=NC=C2)N
Method in brief: as §1

duvelisib = compound: C[C@H](Nc1ncnc2nc[nH]c12)c1cc2cccc(Cl)c2c(=O)n1-c1ccccc1 [duvelisib]
Method in brief: as §1

[3] = compound: Cc1cc(SCc2sc(-c3ccc(C(F)(F)F)cc3)nc2C)ccc1OCC(=O)O
Method in brief: as §1

doramapimod = compound: Cc1ccc(-n2nc(C(C)(C)C)cc2NC(=O)Nc2ccc(OCCN3CCOCC3)c3ccccc23)cc1 [doramapimod]
Method in brief: as §1

ispinesib = compound: Cc1ccc(C(=O)N(CCCN)[C@@H](c2nc3cc(Cl)ccc3c(=O)n2Cc2ccccc2)C(C)C)cc1 [ispinesib]
Method in brief: as §1

bafetinib = compound: Cc1ccc(NC(=O)c2ccc(CN3CC[C@H](N(C)C)C3)c(C(F)(F)F)c2)cc1Nc1nccc(-c2cncnc2)n1 [bafetinib]
Method in brief: as §1

dasatinib = compound: Cc1nc(Nc2ncc(C(=O)Nc3c(C)cccc3Cl)s2)cc(N2CCN(CCO)CC2)n1 [dasatinib]
Method in brief: as §1

[4] = compound: Cn1cc(-c2ccc3c(c2)CCN3C(=O)Cc2cccc(C(F)(F)F)c2)c2c(N)ncnc21
Method in brief: as §1

[5] = compound: Cn1cc(-c2ccc3nnc(C(F)(F)c4ccc5ncccc5c4)n3n2)cn1
Method in brief: as §1

tipifarnib = compound: Cn1cncc1[C@@](N)(c1ccc(Cl)cc1)c1ccc2c(c1)c(-c1cccc(Cl)c1)cc(=O)n2C [tipifarnib]
Method in brief: as §1

nilotinib = compound: Cc1cn(-c2cc(NC(=O)c3ccc(C)c(Nc4nccc(-c5cccnc5)n4)c3)cc(C(F)(F)F)c2)cn1 [nilotinib]
Method in brief: as §1

[6] = compound: Cc1nc(Nc2n[nH]c3c2CN(C(=O)N[C@H](CN(C)C)c2ccccc2)C3(C)C)c2sccc2n1
Method in brief: as §1

[7] = compound: Cc1ncc(-c2ccnc(Nc3ccc(S(C)(=O)=O)cc3)n2)n1C(C)C
Method in brief: as §1

gandotinib = compound: Cc1cc(Nc2cc(CN3CCOCC3)c3nc(C)c(Cc4ccc(Cl)cc4F)n3n2)n[nH]1 [gandotinib]
Method in brief: as §1

[8] = compound: Cc1cccc(CC(=O)N2CCc3c2ccc(-c2cn(C)c4ncnc(N)c24)c3F)n1
Method in brief: as §1

mubritinib = compound: FC(F)(F)c1ccc(/C=C/c2nc(COc3ccc(CCCCn4ccnn4)cc3)co2)cc1 [mubritinib]
Method in brief: as §1

[9] = compound: CS(=O)(=O)c1ccc(-c2cnc(N)c(C(=O)Nc3ccccc3)n2)cc1
Method in brief: as §1

tozasertib = compound: Cc1cc(Nc2cc(N3CCN(C)CC3)nc(Sc3ccc(NC(=O)C4CC4)cc3)n2)n[nH]1 [tozasertib]
Method in brief: as §1

Measured: log2 fold change

APOBEC3F (UniProt Q8IUX4)
inactive: crizotinib 0.138 | [1] -0.478 | [2] 0.145 | duvelisib -0.093 | [3] 0 | doramapimod 0.242 | ispinesib -0.228 | bafetinib -0.237 | dasatinib -0.055 | [4] -0.276 | [5] -0.041 | tipifarnib 0.208

APOBEC3B (UniProt Q9UH17)
inactive: crizotinib -0.161 | [2] 0.038 | doramapimod 0.153 | ispinesib -0.227 | nilotinib -0.031 | [6] -0.2 | [7] 0.05 | [4] -0.087 | [5] 0.212

ARHGAP25 isoform 4 (UniProt P42331)
inactive: [1] -0.066 | [2] 0.309 | gandotinib -0.056 | [3] 0.299 | bafetinib -0.035 | [8] -0.089 | nilotinib 0.28 | [6] -0.276 | dasatinib -0.421 | [7] 0.078 | [4] -0.009 | mubritinib 0.266

ANKRD16 (UniProt Q6P6B7)
inactive: [9] 0.19 | [1] -0.048 | bafetinib -0.095 | tipifarnib 0.2 | mubritinib 0.185

ARHGAP5 (UniProt Q13017)
inactive: [1] 0.039 | [2] 0.13 | tozasertib 0.04 | ispinesib -0.057 | bafetinib 0.006 | [4] -0.093 | [5] 0.139

Two neighbouring records out of the list so far:
ARHGAP25 isoform 4 (UniProt P42331)
inactive: [1] -0.066 | [2] 0.309 | gandotinib -0.056 | [3] 0.299 | bafetinib -0.035 | [8] -0.089 | nilotinib 0.28 | [6] -0.276 | dasatinib -0.421 | [7] 0.078 | [4] -0.009 | mubritinib 0.266

ANKRD16 (UniProt Q6P6B7)
inactive: [9] 0.19 | [1] -0.048 | bafetinib -0.095 | tipifarnib 0.2 | mubritinib 0.185

The list goes on.

ANKH (UniProt Q9HCJ1)
inactive: crizotinib 0.495 | duvelisib 0.164 | gandotinib 0.008 | [3] -0.139 | doramapimod -0.09 | ispinesib -0.258 | [8] -0.356 | nilotinib -0.048 | [6] -0.018 | dasatinib 0.206 | [7] -0.103 | [5] 0.08 | tipifarnib 0.108

ANXA2 (UniProt H0YMT9)
inactive: crizotinib 0.084 | [1] 0.121 | duvelisib 0.43 | [3] -0.13 | doramapimod -0.011 | bafetinib 0.078 | dasatinib -0.052
